Measured values: article PMC6901934
These are yes or no findings as the source states them, for the method shown. In cells and extracts the contact can be indirect. Some results given as binding are weak or reduced against the parent protein; the word gives no strength.

The chains behind the UniProt entries cited, without tags or fusion partners.
UniProt P70288: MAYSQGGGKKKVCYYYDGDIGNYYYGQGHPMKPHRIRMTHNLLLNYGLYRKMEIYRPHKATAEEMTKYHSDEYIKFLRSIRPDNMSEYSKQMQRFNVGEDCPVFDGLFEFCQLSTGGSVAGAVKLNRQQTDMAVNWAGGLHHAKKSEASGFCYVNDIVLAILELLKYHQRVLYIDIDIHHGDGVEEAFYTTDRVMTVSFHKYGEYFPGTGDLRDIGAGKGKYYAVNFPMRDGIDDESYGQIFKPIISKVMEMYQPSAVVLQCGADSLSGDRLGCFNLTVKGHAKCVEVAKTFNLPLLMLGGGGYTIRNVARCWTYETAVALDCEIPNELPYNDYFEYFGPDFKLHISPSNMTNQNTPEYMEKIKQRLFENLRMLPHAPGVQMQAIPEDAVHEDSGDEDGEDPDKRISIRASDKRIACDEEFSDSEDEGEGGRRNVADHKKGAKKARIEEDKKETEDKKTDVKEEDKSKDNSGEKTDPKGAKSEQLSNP
UniProt O09106: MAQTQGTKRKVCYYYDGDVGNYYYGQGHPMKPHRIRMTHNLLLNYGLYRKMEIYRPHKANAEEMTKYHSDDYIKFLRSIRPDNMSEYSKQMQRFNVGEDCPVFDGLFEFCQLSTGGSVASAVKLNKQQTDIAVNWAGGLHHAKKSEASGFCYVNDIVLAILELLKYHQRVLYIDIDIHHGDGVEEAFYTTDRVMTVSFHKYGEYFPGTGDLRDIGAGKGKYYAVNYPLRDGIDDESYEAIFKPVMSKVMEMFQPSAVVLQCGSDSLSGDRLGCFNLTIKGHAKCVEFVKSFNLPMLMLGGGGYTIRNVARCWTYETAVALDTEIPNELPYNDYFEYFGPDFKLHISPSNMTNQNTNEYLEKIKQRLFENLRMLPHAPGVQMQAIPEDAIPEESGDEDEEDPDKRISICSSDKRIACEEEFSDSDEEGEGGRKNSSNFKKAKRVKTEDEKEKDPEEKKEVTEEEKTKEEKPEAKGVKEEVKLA
UniProt P54726: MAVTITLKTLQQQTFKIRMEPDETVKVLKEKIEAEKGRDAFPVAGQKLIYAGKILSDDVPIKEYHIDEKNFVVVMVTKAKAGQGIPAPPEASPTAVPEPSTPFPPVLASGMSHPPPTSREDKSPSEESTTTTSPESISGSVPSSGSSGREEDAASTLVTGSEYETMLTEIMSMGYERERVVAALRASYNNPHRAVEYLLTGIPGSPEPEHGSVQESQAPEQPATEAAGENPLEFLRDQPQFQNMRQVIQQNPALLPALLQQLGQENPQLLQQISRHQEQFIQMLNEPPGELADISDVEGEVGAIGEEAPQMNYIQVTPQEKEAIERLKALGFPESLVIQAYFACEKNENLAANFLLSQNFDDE

T1: Ube3a (mouse (endogenous in mouse cortex)) (UniProt O08759)
T1 sequence: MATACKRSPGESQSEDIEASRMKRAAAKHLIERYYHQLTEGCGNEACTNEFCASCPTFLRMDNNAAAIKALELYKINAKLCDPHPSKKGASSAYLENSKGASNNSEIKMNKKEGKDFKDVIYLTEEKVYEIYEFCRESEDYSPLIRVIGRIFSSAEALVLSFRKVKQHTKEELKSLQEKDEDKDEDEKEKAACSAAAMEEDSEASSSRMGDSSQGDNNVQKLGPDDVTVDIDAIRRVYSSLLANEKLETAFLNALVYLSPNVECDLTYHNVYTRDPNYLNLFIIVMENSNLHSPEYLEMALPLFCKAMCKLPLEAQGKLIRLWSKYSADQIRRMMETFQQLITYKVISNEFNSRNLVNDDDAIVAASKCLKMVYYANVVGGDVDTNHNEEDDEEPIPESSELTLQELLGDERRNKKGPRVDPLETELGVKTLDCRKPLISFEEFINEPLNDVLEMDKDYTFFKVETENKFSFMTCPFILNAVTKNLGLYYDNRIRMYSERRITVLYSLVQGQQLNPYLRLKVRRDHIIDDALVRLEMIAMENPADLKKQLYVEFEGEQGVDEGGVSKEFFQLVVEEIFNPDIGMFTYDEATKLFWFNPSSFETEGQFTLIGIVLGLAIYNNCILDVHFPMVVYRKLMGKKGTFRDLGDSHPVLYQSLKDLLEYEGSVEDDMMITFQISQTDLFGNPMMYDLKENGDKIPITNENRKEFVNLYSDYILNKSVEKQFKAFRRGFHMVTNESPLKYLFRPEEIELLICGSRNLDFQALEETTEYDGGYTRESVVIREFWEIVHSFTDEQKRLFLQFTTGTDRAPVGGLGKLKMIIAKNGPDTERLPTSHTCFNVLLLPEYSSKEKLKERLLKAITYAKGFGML


Columns and labels:
[1] = target: T1, Ube3a (mouse (endogenous in mouse cortex)); assay: co-IP; cortical lysates from wild type mice (P60) immunoprecipitated with Ube3a antibody (Sigma); blots probed with Ube3a, HDAC1, HDAC2 and RAD23A antibodies
[2] = target: histone deacetylase 2 (HDAC2) (mouse (endogenous in mouse cortex)) (UniProt P70288); assay: co-IP; reverse co-IP: brain lysates (wild type and AS samples) immunoprecipitated with HDAC2 antibody (Cell Signalling Technology); blots detected with HDAC2, Ube3a and ubiquitin antibodies

| Molecule | binding [1] | binding [2] |
| --- | --- | --- |
| HDAC1 (from UniProt O09106 1-482) | no binding | – |
| Ube3a (protein, UniProt O08759 1-870) MATACKRSPGESQSEDIEASRMKRAAAKHLIERYYHQLTEGCGNEACTNEFCASCPTFLRMDNNAAAIKALELYKINAKLCDPHPSKKGASSAYLENSKGASNNSEIKMNKKEGKDFKDVIYLTEEKVYEIYEFCRESEDYSPLIRVIGRIFSSAEALVLSFRKVKQHTKEELKSLQEKDEDKDEDEKEKAACSAAAMEEDSEASSSRMGDSSQGDNNVQKLGPDDVTVDIDAIRRVYSSLLANEKLETAFLNALVYLSPNVECDLTYHNVYTRDPNYLNLFIIVMENSNLHSPEYLEMALPLFCKAMCKLPLEAQGKLIRLWSKYSADQIRRMMETFQQLITYKVISNEFNSRNLVNDDDAIVAASKCLKMVYYANVVGGDVDTNHNEEDDEEPIPESSELTLQELLGDERRNKKGPRVDPLETELGVKTLDCRKPLISFEEFINEPLNDVLEMDKDYTFFKVETENKFSFMTCPFILNAVTKNLGLYYDNRIRMYSERRITVLYSLVQGQQLNPYLRLKVRRDHIIDDALVRLEMIAMENPADLKKQLYVEFEGEQGVDEGGVSKEFFQLVVEEIFNPDIGMFTYDEATKLFWFNPSSFETEGQFTLIGIVLGLAIYNNCILDVHFPMVVYRKLMGKKGTFRDLGDSHPVLYQSLKDLLEYEGSVEDDMMITFQISQTDLFGNPMMYDLKENGDKIPITNENRKEFVNLYSDYILNKSVEKQFKAFRRGFHMVTNESPLKYLFRPEEIELLICGSRNLDFQALEETTEYDGGYTRESVVIREFWEIVHSFTDEQKRLFLQFTTGTDRAPVGGLGKLKMIIAKNGPDTERLPTSHTCFNVLLLPEYSSKEKLKERLLKAITYAKGFGML | – | no binding |

Now from value to molecule:

| binding [1] | binding [2] | Molecule |
| --- | --- | --- |
| binds | – | RAD23A (from UniProt P54726 1-363) |
| no binding | – | histone deacetylase 2 (HDAC2) (from UniProt P70288 1-488) |
